PubChem BioAssay AID1224826 | NIAID, 2016

Purpose: 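Regulators of Tlr4 signalling leading to Tnf-alpha expression in macrophages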 (primary screen)
Cells: RAW264.7 G9 macrophages from mouse bearing reporters for p65 (GFP) and the Tnf promoter (mCherry)
Reagents: siRNA pool against mouse genes, 100 nM
Duration: 16 h of LPS stimulation, after 2 days of siRNA transfection
Treatment: bacterial lipopolysaccharide (Salmonella minnesota R595), 10 ng/ml
Detection: 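Imaged Tnf reporter mCherry in nuclei, minus background, normalised per plate to the median and expressed as robust z-scores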
Scale: Tnf reporter robust z-score: higher = stronger Tnf promoter reporter signal after LPS
Call rule: 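a well counts as active at a score of -1.3 or below (Tlr4 knock-down control median) or above 3 (raised signal); controls and wells holding fewer than 50 cells are excluded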
Calls: active = Tnf reporter clearly lowered or raised; inactive = no clear change in Tnf reporter
This is one part, drawn at random, of about 17,000 reagents. Of all reagents, about 1,110 (6.6%) got an active call. 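Active means lowered or raised reporter signal; replicate intensities are raw and not normalised per plate.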 Entries without a mark were called inactive. Further read-outs or replicates are left out here. No sequences are given here.

Acsm2 → Tnf reporter robust z-score = -0.92; fewer than 50 cells in well = enough cells in well
Cpne1 → Tnf reporter robust z-score = -0.05; fewer than 50 cells in well = enough cells in well
Slc38a2 → fewer than 50 cells in well = fewer than 50 cells per well; well left out of calls
Ugt2a3 → fewer than 50 cells in well = fewer than 50 cells per well; well left out of calls

Next part, starting with the last 2 of the part before.
Slc38a2 → fewer than 50 cells in well = fewer than 50 cells per well; well left out of calls
Ugt2a3 → fewer than 50 cells in well = fewer than 50 cells per well; well left out of calls
Zfp317 → Tnf reporter robust z-score = 1.33; fewer than 50 cells in well = enough cells in well
Ttll12 → Tnf reporter robust z-score = -0.57; fewer than 50 cells in well = enough cells in well
Cmtm6 → Tnf reporter robust z-score = -0.62; fewer than 50 cells in well = enough cells in well
Atg14 → Tnf reporter robust z-score = -0.81; fewer than 50 cells in well = enough cells in well
Acnat2 → Tnf reporter robust z-score = 0.17; fewer than 50 cells in well = enough cells in well
Cog3 → Tnf reporter robust z-score = -2.12 (active); fewer than 50 cells in well = enough cells in well
D830050J10Rik → Tnf reporter robust z-score = -1.36 (active); fewer than 50 cells in well = enough cells in well
Ube2m → Tnf reporter robust z-score = -0.04; fewer than 50 cells in well = enough cells in well
Mybbp1a → Tnf reporter robust z-score = -1.1; fewer than 50 cells in well = enough cells in well
Il11ra1 → fewer than 50 cells in well = fewer than 50 cells per well; well left out of calls
